From the supplement of paper PMC10849652
This is one part of the list.

The chains behind the UniProt entries cited, without tags or fusion partners. Where a name states a change or a piece, a line headed by the entry shows the natural chain unless it says otherwise.
UniProt Q9NPQ8: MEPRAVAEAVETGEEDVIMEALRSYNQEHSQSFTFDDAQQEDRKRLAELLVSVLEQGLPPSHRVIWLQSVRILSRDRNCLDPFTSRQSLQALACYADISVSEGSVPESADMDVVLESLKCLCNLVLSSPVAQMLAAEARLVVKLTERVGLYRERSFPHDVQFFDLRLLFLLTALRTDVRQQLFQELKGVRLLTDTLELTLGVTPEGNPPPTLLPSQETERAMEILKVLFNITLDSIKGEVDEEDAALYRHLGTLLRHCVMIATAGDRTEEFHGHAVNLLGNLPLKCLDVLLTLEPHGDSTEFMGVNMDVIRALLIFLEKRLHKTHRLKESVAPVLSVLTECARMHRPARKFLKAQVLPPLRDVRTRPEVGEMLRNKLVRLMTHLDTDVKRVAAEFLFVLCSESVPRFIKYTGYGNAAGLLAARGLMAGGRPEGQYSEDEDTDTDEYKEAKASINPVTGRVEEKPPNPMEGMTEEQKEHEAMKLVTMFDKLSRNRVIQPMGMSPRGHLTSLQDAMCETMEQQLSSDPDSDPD
UniProt Q8ND24: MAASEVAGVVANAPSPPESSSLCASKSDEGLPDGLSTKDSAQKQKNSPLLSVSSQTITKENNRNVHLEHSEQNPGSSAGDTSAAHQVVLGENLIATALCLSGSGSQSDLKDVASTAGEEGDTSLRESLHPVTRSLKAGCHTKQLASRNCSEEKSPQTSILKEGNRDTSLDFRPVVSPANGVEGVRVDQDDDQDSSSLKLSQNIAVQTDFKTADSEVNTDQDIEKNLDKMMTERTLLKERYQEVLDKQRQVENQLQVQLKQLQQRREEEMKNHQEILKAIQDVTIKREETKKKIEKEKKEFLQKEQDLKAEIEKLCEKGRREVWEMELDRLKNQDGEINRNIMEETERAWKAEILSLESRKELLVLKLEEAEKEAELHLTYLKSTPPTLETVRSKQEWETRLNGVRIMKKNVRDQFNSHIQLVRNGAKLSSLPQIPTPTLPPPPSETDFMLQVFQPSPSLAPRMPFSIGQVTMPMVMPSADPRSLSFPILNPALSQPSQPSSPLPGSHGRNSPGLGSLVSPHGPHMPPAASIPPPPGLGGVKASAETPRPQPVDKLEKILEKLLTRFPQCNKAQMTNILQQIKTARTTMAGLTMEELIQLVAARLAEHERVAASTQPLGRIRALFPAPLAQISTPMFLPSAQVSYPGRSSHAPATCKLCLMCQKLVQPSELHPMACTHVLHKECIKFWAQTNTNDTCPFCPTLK
UniProt P27694, whole entry, looked up: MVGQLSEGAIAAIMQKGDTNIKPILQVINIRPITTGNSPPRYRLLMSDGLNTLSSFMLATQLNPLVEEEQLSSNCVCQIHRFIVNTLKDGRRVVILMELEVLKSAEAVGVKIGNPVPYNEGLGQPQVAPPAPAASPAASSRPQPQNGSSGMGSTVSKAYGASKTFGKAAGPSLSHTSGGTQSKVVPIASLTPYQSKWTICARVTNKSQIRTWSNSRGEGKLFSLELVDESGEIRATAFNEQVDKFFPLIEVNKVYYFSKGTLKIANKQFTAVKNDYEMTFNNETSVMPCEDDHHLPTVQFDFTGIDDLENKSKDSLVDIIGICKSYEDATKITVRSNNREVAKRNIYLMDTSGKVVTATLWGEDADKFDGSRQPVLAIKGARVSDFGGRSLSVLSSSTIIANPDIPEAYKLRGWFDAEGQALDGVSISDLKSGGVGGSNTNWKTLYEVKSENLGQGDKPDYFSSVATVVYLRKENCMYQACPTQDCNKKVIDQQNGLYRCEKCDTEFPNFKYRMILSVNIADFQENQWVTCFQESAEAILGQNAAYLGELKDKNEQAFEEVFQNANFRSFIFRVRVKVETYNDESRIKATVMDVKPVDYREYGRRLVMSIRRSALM
UniProt O60942: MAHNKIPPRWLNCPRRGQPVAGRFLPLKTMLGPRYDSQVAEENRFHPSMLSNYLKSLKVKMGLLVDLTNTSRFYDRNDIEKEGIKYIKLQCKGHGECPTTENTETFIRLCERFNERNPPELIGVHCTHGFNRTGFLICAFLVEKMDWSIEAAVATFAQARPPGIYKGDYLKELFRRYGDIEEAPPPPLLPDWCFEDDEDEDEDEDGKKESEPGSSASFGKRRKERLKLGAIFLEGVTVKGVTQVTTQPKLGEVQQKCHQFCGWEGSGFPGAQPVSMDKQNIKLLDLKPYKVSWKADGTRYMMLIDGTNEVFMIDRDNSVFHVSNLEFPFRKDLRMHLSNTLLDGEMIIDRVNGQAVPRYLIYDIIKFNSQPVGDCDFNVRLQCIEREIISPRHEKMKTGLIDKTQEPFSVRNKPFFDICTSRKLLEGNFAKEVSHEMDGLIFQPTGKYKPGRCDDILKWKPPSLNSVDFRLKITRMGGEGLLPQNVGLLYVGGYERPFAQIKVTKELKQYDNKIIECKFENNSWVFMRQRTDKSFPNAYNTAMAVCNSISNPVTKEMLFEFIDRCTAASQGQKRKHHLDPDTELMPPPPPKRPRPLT
UniProt O43148, whole entry, looked up: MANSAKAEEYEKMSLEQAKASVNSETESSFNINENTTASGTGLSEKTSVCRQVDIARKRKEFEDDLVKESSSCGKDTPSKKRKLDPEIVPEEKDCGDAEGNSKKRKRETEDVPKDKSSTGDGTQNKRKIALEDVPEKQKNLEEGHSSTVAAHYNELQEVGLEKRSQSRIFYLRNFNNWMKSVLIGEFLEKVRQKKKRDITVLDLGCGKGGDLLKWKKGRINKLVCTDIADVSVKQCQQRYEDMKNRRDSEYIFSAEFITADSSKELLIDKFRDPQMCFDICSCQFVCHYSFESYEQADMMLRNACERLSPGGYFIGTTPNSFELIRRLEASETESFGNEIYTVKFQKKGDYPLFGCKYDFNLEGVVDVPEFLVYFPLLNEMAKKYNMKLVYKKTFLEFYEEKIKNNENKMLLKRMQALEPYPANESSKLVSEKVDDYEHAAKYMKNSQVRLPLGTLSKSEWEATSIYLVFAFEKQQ
UniProt P49247: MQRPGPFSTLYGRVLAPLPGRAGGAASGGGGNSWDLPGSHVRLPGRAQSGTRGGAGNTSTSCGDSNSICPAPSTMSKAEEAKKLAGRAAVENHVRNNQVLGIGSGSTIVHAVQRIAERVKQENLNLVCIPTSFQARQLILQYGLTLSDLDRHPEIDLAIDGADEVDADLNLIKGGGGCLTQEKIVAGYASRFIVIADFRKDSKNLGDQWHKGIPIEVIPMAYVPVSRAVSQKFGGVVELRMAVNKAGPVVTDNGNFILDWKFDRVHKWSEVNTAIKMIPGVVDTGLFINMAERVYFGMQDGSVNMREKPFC
UniProt Q9H4A4: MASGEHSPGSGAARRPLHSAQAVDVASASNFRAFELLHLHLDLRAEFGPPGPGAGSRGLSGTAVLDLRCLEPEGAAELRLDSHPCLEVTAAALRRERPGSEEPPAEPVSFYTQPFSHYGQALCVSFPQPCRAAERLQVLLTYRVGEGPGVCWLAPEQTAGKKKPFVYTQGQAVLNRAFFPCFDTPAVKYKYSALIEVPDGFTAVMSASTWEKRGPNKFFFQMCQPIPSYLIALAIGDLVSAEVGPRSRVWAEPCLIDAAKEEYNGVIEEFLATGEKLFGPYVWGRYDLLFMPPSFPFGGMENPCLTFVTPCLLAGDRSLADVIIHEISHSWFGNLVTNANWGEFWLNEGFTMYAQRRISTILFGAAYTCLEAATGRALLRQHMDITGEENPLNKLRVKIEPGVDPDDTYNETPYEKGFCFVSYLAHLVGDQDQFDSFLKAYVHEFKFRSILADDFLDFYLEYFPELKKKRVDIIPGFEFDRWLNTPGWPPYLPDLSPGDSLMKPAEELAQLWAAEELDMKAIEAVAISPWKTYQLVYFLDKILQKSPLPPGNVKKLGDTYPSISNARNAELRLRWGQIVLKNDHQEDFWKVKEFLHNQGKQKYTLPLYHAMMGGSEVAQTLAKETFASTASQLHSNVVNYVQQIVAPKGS
UniProt Q5UIP0: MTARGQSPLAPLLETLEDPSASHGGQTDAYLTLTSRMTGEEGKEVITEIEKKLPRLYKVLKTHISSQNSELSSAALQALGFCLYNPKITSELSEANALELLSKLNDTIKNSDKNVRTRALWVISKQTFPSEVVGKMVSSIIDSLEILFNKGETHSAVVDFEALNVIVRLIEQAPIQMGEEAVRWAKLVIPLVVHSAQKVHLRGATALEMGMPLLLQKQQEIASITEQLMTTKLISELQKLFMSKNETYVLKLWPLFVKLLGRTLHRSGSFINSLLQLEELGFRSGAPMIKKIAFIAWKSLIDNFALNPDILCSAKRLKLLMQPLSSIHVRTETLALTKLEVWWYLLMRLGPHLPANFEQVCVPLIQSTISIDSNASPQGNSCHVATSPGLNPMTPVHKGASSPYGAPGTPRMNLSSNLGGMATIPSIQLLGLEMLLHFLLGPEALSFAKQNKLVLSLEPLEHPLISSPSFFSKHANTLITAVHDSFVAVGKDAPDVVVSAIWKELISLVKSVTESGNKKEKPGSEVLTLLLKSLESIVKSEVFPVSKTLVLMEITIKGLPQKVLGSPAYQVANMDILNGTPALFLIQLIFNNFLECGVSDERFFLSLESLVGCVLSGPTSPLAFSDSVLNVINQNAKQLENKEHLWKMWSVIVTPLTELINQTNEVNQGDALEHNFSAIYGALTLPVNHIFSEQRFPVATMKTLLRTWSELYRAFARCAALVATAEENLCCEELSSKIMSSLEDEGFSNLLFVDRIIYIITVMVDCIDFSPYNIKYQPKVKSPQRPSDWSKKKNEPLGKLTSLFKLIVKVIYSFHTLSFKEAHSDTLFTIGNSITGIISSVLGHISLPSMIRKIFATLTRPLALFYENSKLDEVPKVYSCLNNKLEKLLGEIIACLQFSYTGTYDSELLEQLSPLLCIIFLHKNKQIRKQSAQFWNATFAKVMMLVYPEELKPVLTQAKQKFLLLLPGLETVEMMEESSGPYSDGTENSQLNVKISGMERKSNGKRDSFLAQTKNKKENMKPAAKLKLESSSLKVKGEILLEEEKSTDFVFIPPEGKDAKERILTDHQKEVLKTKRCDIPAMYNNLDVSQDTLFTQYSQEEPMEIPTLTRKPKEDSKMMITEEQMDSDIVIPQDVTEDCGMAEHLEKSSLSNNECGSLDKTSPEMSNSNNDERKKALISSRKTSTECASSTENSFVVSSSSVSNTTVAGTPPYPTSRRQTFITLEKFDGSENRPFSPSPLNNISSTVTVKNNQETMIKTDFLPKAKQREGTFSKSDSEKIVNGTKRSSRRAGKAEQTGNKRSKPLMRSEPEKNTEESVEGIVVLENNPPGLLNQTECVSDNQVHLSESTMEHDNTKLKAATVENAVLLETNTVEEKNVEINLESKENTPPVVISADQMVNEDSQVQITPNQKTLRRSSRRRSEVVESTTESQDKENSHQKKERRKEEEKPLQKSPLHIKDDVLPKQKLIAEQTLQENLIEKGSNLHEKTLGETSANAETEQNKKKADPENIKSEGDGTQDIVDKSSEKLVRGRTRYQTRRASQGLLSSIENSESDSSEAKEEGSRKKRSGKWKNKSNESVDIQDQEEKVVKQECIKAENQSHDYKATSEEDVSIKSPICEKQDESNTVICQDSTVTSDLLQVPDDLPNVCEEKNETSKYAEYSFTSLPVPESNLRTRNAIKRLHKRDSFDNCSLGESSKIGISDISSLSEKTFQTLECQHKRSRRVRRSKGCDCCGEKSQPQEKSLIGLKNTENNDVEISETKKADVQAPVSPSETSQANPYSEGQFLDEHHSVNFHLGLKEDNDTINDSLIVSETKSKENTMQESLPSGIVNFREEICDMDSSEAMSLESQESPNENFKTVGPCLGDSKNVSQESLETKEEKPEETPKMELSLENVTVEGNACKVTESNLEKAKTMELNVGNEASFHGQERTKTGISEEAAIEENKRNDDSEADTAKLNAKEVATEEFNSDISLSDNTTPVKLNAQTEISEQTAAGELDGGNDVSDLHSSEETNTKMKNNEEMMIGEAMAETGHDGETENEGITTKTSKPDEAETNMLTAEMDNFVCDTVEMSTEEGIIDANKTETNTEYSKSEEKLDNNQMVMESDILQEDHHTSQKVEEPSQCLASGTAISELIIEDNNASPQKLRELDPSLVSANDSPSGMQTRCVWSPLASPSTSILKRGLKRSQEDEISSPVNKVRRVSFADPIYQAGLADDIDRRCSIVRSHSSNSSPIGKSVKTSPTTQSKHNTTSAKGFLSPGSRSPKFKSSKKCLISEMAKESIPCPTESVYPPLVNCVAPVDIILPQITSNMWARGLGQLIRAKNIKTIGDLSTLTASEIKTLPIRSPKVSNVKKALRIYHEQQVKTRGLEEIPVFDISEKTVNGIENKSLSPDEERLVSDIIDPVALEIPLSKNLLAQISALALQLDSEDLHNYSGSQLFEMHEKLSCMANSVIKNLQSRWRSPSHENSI
UniProt P52758: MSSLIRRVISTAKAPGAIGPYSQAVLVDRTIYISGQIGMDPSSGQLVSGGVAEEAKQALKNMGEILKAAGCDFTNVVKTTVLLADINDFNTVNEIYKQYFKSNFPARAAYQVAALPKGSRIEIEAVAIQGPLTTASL

Assays:
Test in all cases: log2 fold change, soluble protein after heating vs DMSO (PISA); higher = thermal stabilisation; K562 lysate, 10 uM; active = over 0.2 and 3.5 SD of the protein, either way, in both replicates (recomputed)
lapatinib = compound: CS(=O)(=O)CCNCc1ccc(-c2ccc3ncnc(Nc4ccc(OCc5cccc(F)c5)c(Cl)c4)c3c2)o1 [lapatinib]
How it was run: (§1)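 Log-two fold change in thermal stability relative to solvent controls is reported from duplicates. For each sample, crude K562 extract from dounce-homogenised pellets in PBS pH 7.4 with 1 mM MgCl2, at 1 mg/mL protein, was treated with 10 μM compound for 30 min. Aliquots heated for 3 min across 48°C-58°C were pooled, brought to 0.5% NP-40 at 4°C and cleared at 21,000xg for 90 min. The supernatant was quantified by TMTpro 16plex LC-MS/MS with channel sums equalised.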

pictilisib = compound: CS(=O)(=O)N1CCN(Cc2cc3nc(-c4cccc5[nH]ncc45)nc(N4CCOCC4)c3s2)CC1 [pictilisib]
How it was run: as §1

crizotinib = compound: C[C@@H](Oc1cc(-c2cnn(C3CCNCC3)c2)cnc1N)c1c(Cl)ccc(F)c1Cl [crizotinib]
How it was run: as §1

[1] = compound: C[C@H](C1=CC=C(C=C1)C(=O)NC2=C3C=CNC3=NC=C2)N
How it was run: as §1

duvelisib = compound: C[C@H](Nc1ncnc2nc[nH]c12)c1cc2cccc(Cl)c2c(=O)n1-c1ccccc1 [duvelisib]
How it was run: as §1

gandotinib = compound: Cc1cc(Nc2cc(CN3CCOCC3)c3nc(C)c(Cc4ccc(Cl)cc4F)n3n2)n[nH]1 [gandotinib]
How it was run: as §1

tozasertib = compound: Cc1cc(Nc2cc(N3CCN(C)CC3)nc(Sc3ccc(NC(=O)C4CC4)cc3)n2)n[nH]1 [tozasertib]
How it was run: as §1

doramapimod = compound: Cc1ccc(-n2nc(C(C)(C)C)cc2NC(=O)Nc2ccc(OCCN3CCOCC3)c3ccccc23)cc1 [doramapimod]
How it was run: as §1

bafetinib = compound: Cc1ccc(NC(=O)c2ccc(CN3CC[C@H](N(C)C)C3)c(C(F)(F)F)c2)cc1Nc1nccc(-c2cncnc2)n1 [bafetinib]
How it was run: as §1

[2] = compound: Cc1cccc(CC(=O)N2CCc3c2ccc(-c2cn(C)c4ncnc(N)c24)c3F)n1
How it was run: as §1

Target	log2 fold change (lapatinib)	log2 fold change (pictilisib)	log2 fold change (crizotinib)	log2 fold change [1]	log2 fold change (duvelisib)	log2 fold change (gandotinib)	log2 fold change (tozasertib)	log2 fold change (doramapimod)	log2 fold change (bafetinib)	log2 fold change [2]
RIC8A (UniProt Q9NPQ8)	inactive: 0.018	inactive: -0.021	inactive: -0.034	inactive: -0.004	inactive: -0.023	inactive: -0.076	inactive: 0.024	inactive: 0.041	inactive: 0.004	inactive: 0.029
RNF214 (UniProt Q8ND24)	inactive: 0.036	inactive: -0.019	inactive: 0.107	inactive: -0.008	inactive: -0.046	inactive: 0.026	inactive: -0.004	inactive: 0.035	inactive: -0.022	inactive: 0.028
RPF2 (UniProt Q9H7B2)	inactive: 0.037	inactive: -0.05	inactive: -0.094	inactive: 0.202	inactive: -0.009	inactive: -0.064	inactive: 0.066	inactive: -0.119	inactive: -0.042	inactive: 0
RHOG (UniProt P84095)	inactive: -0.032	inactive: 0	inactive: -0.015	inactive: -0.031	inactive: -0.005	inactive: 0.019	inactive: 0.004	inactive: -0.013	inactive: 0.022	inactive: -0.002
RPA1 (UniProt P27694)	inactive: -0.012	inactive: -0.032	inactive: -0.011	inactive: 0.116	inactive: 0.001	inactive: -0.056	inactive: 0.007	inactive: 0	inactive: -0.036	inactive: -0.075
RNH1 (UniProt P13489)	inactive: -0.023	inactive: -0.025	inactive: -0.032	inactive: -0.119	inactive: -0.031	inactive: -0.007	inactive: -0.007	inactive: 0.087	inactive: 0.027	inactive: 0.049
ROS1 (UniProt P08922)	inactive: -0.155	inactive: -0.2	inactive: 0.011	inactive: -0.331	inactive: -0.048	inactive: 0.059	inactive: -0.028	inactive: 0.12	inactive: -0.214	inactive: 0.199
RPL27 (UniProt P61353)	inactive: -0.04	inactive: 0.008	inactive: 0.013	active: 0.411	inactive: 0.012	inactive: -0.098	inactive: 0.01	inactive: -0.034	inactive: -0.033	inactive: -0.118
RNGTT (UniProt O60942)	inactive: 0.004	inactive: 0.082	inactive: -0.032	inactive: 0.038	inactive: -0.002	inactive: -0.079	inactive: 0.076	inactive: 0.055	inactive: 0.157	inactive: 0.022
RIOK1 (UniProt Q9BRS2)	inactive: -0.044	inactive: 0.197	inactive: -0.015	active: 0.92	inactive: 0.037	inactive: -0.138	inactive: 0.008	inactive: 0.025	inactive: -0.056	inactive: -0.134
RNASEH2B, A0A1B0GUE7	inactive: -0.128									
RPL29 (UniProt P47914)	inactive: -0.001	inactive: -0.032	inactive: 0.06	inactive: 0.107	inactive: 0.017	inactive: -0.057	inactive: -0.009	inactive: -0.071	inactive: 0.04	inactive: -0.113
RHOT2 (UniProt Q8IXI1)	inactive: -0.045	inactive: -0.017	inactive: -0.039	inactive: -0.025	inactive: -0.001	inactive: -0.001	inactive: 0.006	inactive: 0.024	inactive: 0.033	inactive: 0.04
RPL26 (UniProt P61254)	inactive: 0.029	inactive: -0.006	inactive: 0.112	inactive: 0.343	inactive: -0.029	inactive: -0.3	inactive: 0.01	inactive: -0.089	inactive: 0.08	inactive: -0.351
RNMT isoform 2 (UniProt O43148)	inactive: -0.005	inactive: 0.001	inactive: -0.03	inactive: -0.009	inactive: -0.028	inactive: 0.008	inactive: 0.001	inactive: 0.002	inactive: 0.011	inactive: 0.016
RPL26L1 (UniProt Q9UNX3)	inactive: -0.009	inactive: 0.008	inactive: 0.064	inactive: 0.18	inactive: -0.01	inactive: -0.104	inactive: 0.029	inactive: -0.046	inactive: 0.096	inactive: -0.144
RPL15 (UniProt P61313)	inactive: 0.012	inactive: 0.006	inactive: -0.011	inactive: 0.055	inactive: 0.024	inactive: -0.036	inactive: -0.033	inactive: -0.011	inactive: 0.034	inactive: -0.053
RPL13 (UniProt P26373)	inactive: -0.01	inactive: 0.013	inactive: 0.036	inactive: -0.051	inactive: 0.026	inactive: 0	inactive: 0.022	inactive: -0.026	inactive: -0.025	inactive: 0.051
RIC1 (UniProt Q4ADV7)	inactive: 0.016	inactive: -0.02	inactive: -0.06	inactive: -0.032	inactive: -0.048	inactive: -0.092	inactive: 0.01	inactive: 0.026	active: 0.3	inactive: 0.108
RPIA (UniProt P49247)	inactive: -0.011	inactive: -0.023	inactive: -0.018	inactive: -0.188	inactive: 0.012	inactive: 0.069	inactive: -0.048	inactive: -0.001	inactive: -0.005	inactive: 0.06
RPL10A (UniProt P62906)	inactive: -0.037	inactive: 0.003	inactive: 0.002	inactive: 0.096	inactive: 0.007	inactive: -0.028	inactive: -0.015	inactive: -0.021	inactive: -0.011	inactive: -0.033
RPL18A (UniProt Q02543)	inactive: -0.014	inactive: 0.027	inactive: 0.043	inactive: 0.178	inactive: 0.045	inactive: -0.034	inactive: -0.021	inactive: -0.064	inactive: 0.041	inactive: -0.051
RPL12 (UniProt P30050)	inactive: -0.008	inactive: 0.02	inactive: -0.035	inactive: 0.035	inactive: 0.038	inactive: -0.059	inactive: -0.011	inactive: 0.016	inactive: -0.016	inactive: -0.014
RO60 (UniProt P10155)	inactive: -0.011	inactive: -0.043	inactive: 0.017	inactive: 0.039	inactive: 0.009	inactive: -0.042	inactive: -0.018	inactive: -0.035	inactive: 0.019	inactive: -0.08
RNPEP (UniProt Q9H4A4)	inactive: 0.019	inactive: 0.002	inactive: -0.006	inactive: -0.004	inactive: -0.009	inactive: 0.004	inactive: -0.013	inactive: 0.009	inactive: 0.07	inactive: 0.017
RIF1 (UniProt Q5UIP0)	inactive: -0.018	inactive: 0.029	inactive: -0.065	inactive: -0.013	inactive: 0.006	inactive: -0.046	inactive: -0.01	inactive: -0.031	inactive: -0.036	inactive: 0.068
RIDA (UniProt P52758)	inactive: 0.073	inactive: -0.029	inactive: 0.06	inactive: 0.028	inactive: 0.017	inactive: 0	inactive: -0.008	inactive: -0.034	inactive: 0.087	inactive: -0.029
RNF7 (UniProt Q9UBF6)	inactive: -0.007	inactive: -0.013	inactive: -0.039	inactive: -0.096	inactive: 0.1	inactive: 0.061	inactive: -0.177	inactive: 0.049	inactive: -0.016	inactive: 0.004

Random excerpt: two entries already listed.
Target	log2 fold change (lapatinib)	log2 fold change (pictilisib)	log2 fold change (crizotinib)	log2 fold change [1]	log2 fold change (duvelisib)	log2 fold change (gandotinib)	log2 fold change (tozasertib)	log2 fold change (doramapimod)	log2 fold change (bafetinib)	log2 fold change [2]
RIF1 (UniProt Q5UIP0)	inactive: -0.018	inactive: 0.029	inactive: -0.065	inactive: -0.013	inactive: 0.006	inactive: -0.046	inactive: -0.01	inactive: -0.031	inactive: -0.036	inactive: 0.068
RPL26L1 (UniProt Q9UNX3)	inactive: -0.009	inactive: 0.008	inactive: 0.064	inactive: 0.18	inactive: -0.01	inactive: -0.104	inactive: 0.029	inactive: -0.046	inactive: 0.096	inactive: -0.144
